PubChem BioAssay AID1159584, Peter MacCallum Cancer Centre, 2016
Aim: 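Genes whose loss is lethal only together with E-cadherin loss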 (primary screen). Cell system: human MCF10A breast epithelial cells, parental and CDH1-null. Knock-down reagent: siRNA against human genes. Read-out: 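Cell viability by CellTiter-Glo ATP luminescence, each line scaled to the mean of mock wells across plates, then CDH1-null over parental ratio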. Direction: CDH1-null / parental viability ratio: higher = CDH1-null cells survive relatively better than parental.
This is one part, drawn at random, of about 18,000 deposited reagents. Not all columns of the deposit are shown. No sequences are given here. Not given: the amount of reagent, the time to read-out.

ANTXR2 (GeneID 118429)
- CDH1-null / parental viability ratio: 1.12

LRRC37A2 (GeneID 474170)
- CDH1-null / parental viability ratio: 0.99

GPR137 (GeneID 56834)
- CDH1-null / parental viability ratio: 0.92

COX7C (GeneID 1350)
- CDH1-null / parental viability ratio: 1.08

SF3B4 (GeneID 10262)
- CDH1-null / parental viability ratio: 1

STAT5A (GeneID 6776)
- CDH1-null / parental viability ratio: 1.06

HEMK2 (GeneID 29104)
- CDH1-null / parental viability ratio: 0.9

STPG3 (GeneID 441476)
- CDH1-null / parental viability ratio: 1.02

PPP1R12B (GeneID 4660)
- CDH1-null / parental viability ratio: 1.38

CST9L (GeneID 128821)
- CDH1-null / parental viability ratio: 0.9

ST8SIA2 (GeneID 8128)
- CDH1-null / parental viability ratio: 1.22

BUD31 (GeneID 8896)
- CDH1-null / parental viability ratio: 1.07

PRRT1 (GeneID 80863)
- CDH1-null / parental viability ratio: 0.98

The list goes on; the last 2 above are carried over.
BUD31 (GeneID 8896)
- CDH1-null / parental viability ratio: 1.07

PRRT1 (GeneID 80863)
- CDH1-null / parental viability ratio: 0.98

DDIAS (GeneID 220042)
- CDH1-null / parental viability ratio: 1.02

VEZF1 (GeneID 7716)
- CDH1-null / parental viability ratio: 0.99

OR1J2 (GeneID 26740)
- CDH1-null / parental viability ratio: 1.2

METAP2 (GeneID 10988)
- CDH1-null / parental viability ratio: 1.4

PGAP1 (GeneID 80055)
- CDH1-null / parental viability ratio: 0.88

FGB (GeneID 2244)
- CDH1-null / parental viability ratio: 0.93

REEP4 (GeneID 80346)
- CDH1-null / parental viability ratio: 0.7

HTR3C (GeneID 170572)
- CDH1-null / parental viability ratio: 1.15

TMEM121B (GeneID 27439)
- CDH1-null / parental viability ratio: 1.11

RNF214 (GeneID 257160)
- CDH1-null / parental viability ratio: 0.84

FUT9 (GeneID 10690)
- CDH1-null / parental viability ratio: 1.06

CT47A11 (GeneID 255313)
- CDH1-null / parental viability ratio: 0.91

PPWD1 (GeneID 23398)
- CDH1-null / parental viability ratio: 0.92

GSTZ1 (GeneID 2954)
- CDH1-null / parental viability ratio: 0.78

GPBP1L1 (GeneID 60313)
- CDH1-null / parental viability ratio: 1.04

LDHB (GeneID 3945)
- CDH1-null / parental viability ratio: 1.02

SRSF1 (GeneID 6426)
- CDH1-null / parental viability ratio: 0.88

PNPLA7 (GeneID 375775)
- CDH1-null / parental viability ratio: 1.12

PLA2G7 (GeneID 7941)
- CDH1-null / parental viability ratio: 1.02

CDHR5 (GeneID 53841)
- CDH1-null / parental viability ratio: 0.75

GAGE7 (GeneID 2579)
- CDH1-null / parental viability ratio: 1.22

FGD6 (GeneID 55785)
- CDH1-null / parental viability ratio: 0.89
